For 66 sequences, z-score results are on record in PubChem BioAssay AID1347423 (Functional Genomics Laboratory (NCATS/FGL), 2020).

Among all 52,000 sequences or so, about 210 (0.4%) were called active.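 How the source made its calls: active means gene whose silencing raises cell survival under the drug, median off-target-corrected z-score across its silencing RNAs 2 or more; inactive means the rest.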 The list shows a part of the results.

The nature of this test: Resistance to Poly (ADP-Ribose) Polymerase inhibitor: Gene Identification via Genome-wide siRNA Screen. To be noted: mouse BRCA2 R2336H ES cells, olaparib, CellTiter-Glo viability; active compounds read high. The gist of the method: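 Mouse BRCA2 R2336H ES cells were reverse-transfected with siRNA (20 nM final), treated at 48 h with 500 nM olaparib, and read by CellTiter-Glo after 72 h. Scores: MAD-based z per siRNA, median per gene, seed off-target correction.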
Turning to GCUCACUUAUCUACGUUUUTT against Trim15, the z-score is inactive: 0.783.
Take GGCCCAUAUUUGACUAUAATT against Tlr4: the z-score was inactive: 0.842.
For UCUCAUUGCAAUUCUGGGATT against Olfr675, the z-score was inactive: 0.278.
As to GGGCUUGUCCAUGAUGAACTT against Rb1cc1, the z-score was inactive: 1.27.
Consider CGUUAGUACAAUAUACAAGTT against St18, for which the z-score was inactive: -0.297.
In the case of “GGCUGGAAUCACUGAUAUUTT against 1110033O09Rik”, the z-score is inactive: -1.53.
As for CCACAUUAAAUACGCAACATT against Nos3, the z-score is inactive: 0.807.
As for GGCAUAAAACAGAUUCCUUTT against Tac1, the z-score is inactive: 0.511.
For CGGUCACUUUCAACAUCAATT against C1qbp, the z-score was inactive: 0.0286.
As for “GGACACCUCGAGAUUCUCUTT against 4921517D21Rik”, the z-score was inactive: 0.247.
Regarding GGAAGACACUCCUCUGCUCTT against p, the z-score was inactive: 2.2.
The result for GGCAAAGAAUUCAAUCGGATT against Atp2b2 reads inactive: 0.0746.
The result for GGACAUUGAGAUUUAGCCATT against Kcnc2 reads inactive: -0.588; that for UAGGAACGCACCCAUACAATT against Mtvr2, inactive: -0.36.
GGUCCUGAUGAAUACAUACTT against Asb10: the z-score is inactive: -1.26.
The result for “GGGACAGCUUUUGUGACUCTT against 1300006N24Rik” reads inactive: -0.602.
The result for “CGAACAUGAGUGGAUUGUCTT against 1700010A17Rik” reads inactive: -0.426.
The result for “GGUGCUAAUCAUCAUCAUGTT against 2610109H07Rik” reads inactive: -0.33.
GGAAAUGUACUGUGCCUGGTT against Ogdh: the z-score was inactive: -1.62.
Turning to GCUCAAUGUGACAGUGGUGTT against NE, the z-score was inactive: 0.295.
Turning to “GCAUGCUGACAUUAAAGUGTT against 9130020L07Rik”, the z-score was inactive: 0.17.
Consider GCUUUUUGACUACGUAGCCTT against BC016235, for which the z-score is inactive: 0.932.
GGGAAACACAGAUUUCUUUTT against Igsf4c: the z-score is inactive: 0.467.
Take GGAGGACCCUAUGUCUAAUTT against Adora1: the z-score is inactive: 2.75.
The result for ACCUGAAUUUGGUGACUGATT against AY053573 reads inactive: -0.243; that for GGAAUUGUAGAAAGUGUUGTT against Adh4, inactive: -0.776.
In the case of GGAUUGAAAAGAAUAUGCUTT against Tdrd7, the z-score is inactive: 1.12.
For the sequence “GGGCGAGGCCAAUUUCUUCTT against 2410006F12Rik”, the z-score is inactive: -2.11.
Consider GGCGAAGCUUGAAGAACAUTT against Kpnb3, for which the z-score was inactive: 0.4.
For GGUGAUUUGGCUUCUGCACTT against Sp3, the z-score is inactive: -1.79.
On to GGCUUGAUGAAGAGAAUAUTT against Oog4, for which the z-score was inactive: -0.145.
For GCUGUUCAAUUUGAUUACUTT against Dapp1, the z-score was inactive: -0.407.
For the sequence “GGAACAGUUACUUGAGAGUTT against A730012O14Rik”, the z-score is inactive: -0.573.
For the sequence “GGCGGUCUUUAAGAUGCUCTT against 2300004C15Rik”, the z-score was inactive: -0.459.
On to “CCUUAGAUGAAAUUAGACATT against 2700087I09Rik”, for which the z-score was inactive: 1.24.
Turning to GUGUUUUACCAUUGGACAUTT against Klra20, the z-score was inactive: -0.576.
The result for CCGUAAAACCAUGAAGAAGTT against Pdzk4 reads inactive: -1.41.
As to GGAACUUCCAGAGAUGAGUTT against Bmp2, the z-score was inactive: 0.982.
Consider GGAUGCAGACCAGAACUACTT against C1ql1, for which the z-score is inactive: 0.1.
The result for GGCAAGCUACAAGUUAGUCTT against AB041661 reads inactive: -0.904; that for GGAGACUGAAGAAGAAUAUTT against Lpin2, inactive: -1.16.
The result for GCACAAAUUUGGUAGUGUUTT against Nup50 reads inactive: 0.51; that for “GGAACUUCCUGUUCAGAAATT against 1810022C23Rik”, inactive: -0.742; that for “GCAUACAAAUGCACAUUGATT against D16Bwg1547e”, inactive: -1.45.
GGAAUUUGUGGAAACAGGATT against Tnfaip3: the z-score is inactive: 0.558.
The result for “CCUUCAGCUAUCUAACUUCTT against 5730521E12Rik” reads inactive: 0.528.
For GGUUUACCCAAAGAACUCGTT against Snap29, the z-score was inactive: 2.33.
The result for CCAGCUUACCUUUGAAAAATT against Dusp12 reads inactive: 0.456; that for GCUGUUGGAUCCUUUCCUATT against Slc25a26, inactive: -1.06; that for GGAUACCAAGCAUCGGAAGTT against Tcfap2e, inactive: -0.809.
The result for CGAGGAUGACUUGAUGACCTT against Gm996 reads inactive: 2.52; that for CCUGGCUAUUAGAUCGCGUTT against Kif12, inactive: 1.07.
GGCAUCAUCGAUGUUUAUGTT against Pte2b: the z-score was inactive: -0.138.
Regarding “CGUACAAAUAUGAUUCGAATT against 9530014D17Rik”, the z-score is inactive: 0.231.
Consider GGACCACAUUUUAUGUUGUTT against Rg9mtd3, for which the z-score is inactive: -0.107.
For GCUCGGAAAACUGGCACUATT against Psmb7, the z-score is inactive: -3.53.
For GGAUCAUCAAAACUGACUATT against Sema3d, the z-score was inactive: 2.78.
As for GGAUAGAAACAUUUCUGUGTT against Olfr1145, the z-score is inactive: 0.774.
The result for “GGCACUCCAUGGAAAUUAGTT against 4831416G18Rik” reads inactive: -1.25.
For the sequence GGCUGUGGAUAAUAAACAUTT against V1rg11, the z-score is inactive: 0.745.
On to GGUUAUUUAUGCCCUCAAUTT against AB041544, for which the z-score is inactive: 0.815.
GCUAUGUUAGGAGAAAUGCTT against Copb1: the z-score was inactive: 1.63.
In the case of “GGCAAACAGGUUGAUCGUGTT against 1700123K08Rik”, the z-score is inactive: 0.837.
In the case of GGCCGGAGAAAUCAUUGAGTT against Nme7, the z-score is inactive: -0.896.
With GGCCCAGGAAGAAACAUGUTT against Tff1, the z-score is inactive: -1.07.
As for “CCUAUGUCAUCAUUGGAGUTT against 2310005G13Rik”, the z-score was inactive: 0.537.
